Measured values from paper PMC10485026.
Results are given in words; binding and its absence hold for the method and conditions named. For some assays here: Binding seen in cells or lysates may run through a third protein. Some entries that bind do so weakly or less than the wild type. Sequences can lack the tags named with a protein.

B1: 35S-radiolabelled PGC-1α RS domain (aa565–633), synthesised in rabbit reticulocytes (domain or fragment, UniProt Q9UBK2 565-633)
chain: MRSRSRSFSRHRSCSRSPYSRSRSRSPGSRSSSRSCYYYESSHYRHRTHRNSPLYVRSRSRSPYSRRPR
modifications: 35S-methionine radiolabelled
B2: GB1-6His-tagged PGC-1α RS domain (aa565–633), bacterially expressed and stringently purified (domain or fragment, UniProt Q9UBK2 565-633)
chain: B1 chain

Tests used:
[1] = target: T1, GST-NXF1:p15 protein complex (UniProt Q9UBU9); assay: pull-down; GST-NXF1:p15 immobilised on glutathione-coated sepharose beads; 35S-radiolabelled proteins translated in reticulocyte lysate; RB-100 buffer (25 mM HEPES pH 7.5, 100 mM potassium acetate, 10 mM MgCl2, 1 mM DTT, 10% glycerol, 0.5% Triton X-100), RNase A 20 ng/μl, 4 °C, 1 h; PhosphoImaging; only the target purified
T1 sequence 1: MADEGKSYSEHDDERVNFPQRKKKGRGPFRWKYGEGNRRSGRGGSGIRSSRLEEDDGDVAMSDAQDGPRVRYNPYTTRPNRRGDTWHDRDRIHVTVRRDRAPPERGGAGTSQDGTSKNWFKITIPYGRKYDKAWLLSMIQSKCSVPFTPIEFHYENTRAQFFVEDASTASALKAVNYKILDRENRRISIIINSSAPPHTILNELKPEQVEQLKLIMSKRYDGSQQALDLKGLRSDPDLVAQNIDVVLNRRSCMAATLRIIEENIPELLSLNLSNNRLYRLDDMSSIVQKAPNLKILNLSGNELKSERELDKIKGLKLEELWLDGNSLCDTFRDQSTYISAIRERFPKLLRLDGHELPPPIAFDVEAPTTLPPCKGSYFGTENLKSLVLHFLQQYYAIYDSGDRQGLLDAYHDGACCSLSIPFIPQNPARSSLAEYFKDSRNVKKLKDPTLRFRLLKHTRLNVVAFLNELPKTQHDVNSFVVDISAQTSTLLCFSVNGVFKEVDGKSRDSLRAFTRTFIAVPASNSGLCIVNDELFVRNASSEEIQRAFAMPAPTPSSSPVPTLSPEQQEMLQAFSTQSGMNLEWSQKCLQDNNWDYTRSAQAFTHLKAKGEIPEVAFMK
T1 sequence 2: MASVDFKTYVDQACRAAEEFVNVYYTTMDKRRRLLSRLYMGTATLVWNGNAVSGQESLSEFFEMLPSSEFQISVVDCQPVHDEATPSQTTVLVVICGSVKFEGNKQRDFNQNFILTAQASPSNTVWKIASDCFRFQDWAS

[2] = target: T1, GST-NXF1:p15 protein complex; assay: pull-down; GST-NXF1:p15 immobilised on glutathione-coated sepharose beads; 25 μg purified recombinant 6His-tagged PGC-1α domains from E. coli; RB-100 buffer, RNase-treated, 4 °C, 1 h; detection by anti-6xHis western blot; both purified

Binder | binding [1] | binding [2]
B1 | binds | 
B2 |  | binds
